# Reference: PubChem BioAssay AID493014 (National Center for Advancing Translational Sciences (NCATS), 2011)
# The whole screen tested about 340,000 compounds, of which about 170 (0.05%) were called active. Inconclusive means that the source gave no clear call. Such entries were picked first, then a sample of the others. Calls come from the whole dose curve; as a rule, active = well fitted inhibition curve with a large enough effect in the signal ratio, with a control signal flat (not every such curve was filed as active); inconclusive = small, poorly fitted or top-dose-only effect, or effect the other way, or a change in a side signal; inactive = flat fitted curve, though single readings scatter; the % refers to the signal ratio. Where the call is inconclusive, the potency comes from a doubtful curve fit.
# Assay: qHTS Assay to Find Inhibitors of Chronic Active B-Cell Receptor Signaling;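 for activity change, negative = inhibition: plate controls were basal doxycycline-induced cells for no effect and cells given 10 µM MG132 for full effect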
# Conditions: ABC-DLBCL IkBa-CBG/CBR reporter, luminescence ratio (green luciferase fused to IkBa over red control in TMD8 lymphoma cells), 4 h; activity change, negative = inhibition: at 46.1 µM (top of the series)
# In short: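 Cell line TMD8 (human ABC DLBCL), stably expressing tet-inducible CBG68-IkBa fusion and CBR; IMDM/0.5% FBS; cpd up to 46 uM; dox induction, 4 h, 37C/5% CO2; dual luminescence; green/red ratio; MG132 control.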
# Potency is the fitted concentration of half-maximal effect.
SMILES,"activity change, negative = inhibition",Potency
Cc1ccc(SCC(=O)N2c3ccccc3Sc3ccccc32)cc1,inactive,–
O=C(Nc1ccccc1F)c1cc2nc(C(F)F)cc(C(F)F)n2n1,–,"inconclusive: 16.4 µM [falling, single point]"
CCN(CC)C(=O)[C@H]1C[C@H](CC(=O)NCCCN(C)C)C(=O)N2CCc3c([nH]c4ccc(Cl)cc34)[C@]12C,inconclusive: -18%,–
C[C@H](CO)N1C[C@H](C)[C@@H](CN(C)Cc2ccc(C(=O)O)cc2)Oc2ccc(NS(C)(=O)=O)cc2C1=O,inconclusive: -0.236%,–
N/C(=N\OC(=O)c1cc(-c2ccccc2)nc2ccccc12)c1ccc(Cl)cc1,inconclusive: -12.1%,–
COc1ccc(NC2=CC(=O)CC(c3ccccc3)C2)c(OC)c1 (stereo unspecified),–,"inconclusive: 25.1 µM [cytotoxic, partial curve]"
CC(C(=O)NC1C=CS(=O)(=O)C1)N1C(=O)/C(=C\c2ccccc2)SC1=S (stereo unspecified),–,"inconclusive: 20 µM [falling, partial curve, poor fit]"
CC1CCCN(C(=O)c2ccncc2)C1 (stereo unspecified),inconclusive: 6.34%,–
COc1ccc(NS(=O)(=O)c2c(F)cc(F)c(Cl)c2F)cc1S(=O)(=O)N1CCCCC1,inconclusive: 9.99%,–
CCOC(=O)c1cnc(SC)nc1Sc1ccccc1Cl,inconclusive: 13.7%,–
c1csc(-c2csc3nc(CN4CCOCC4)nc(NCc4ccc5c(c4)OCO5)c23)c1,–,"inconclusive: 20 µM [falling, single point]"
COC(=O)C1=C(C)NC(=S)NC1c1ccc(OC(=O)c2ccco2)cc1 (stereo unspecified),inconclusive: 1.41%,–
O=C(c1ccc2c(c1)OCO2)N(Cc1ccco1)C1(C(=O)NC2CCCCC2)CCCCC1,–,"inconclusive: 4.61 µM [rising, partial curve, poor fit]"
Cc1ccccc1C(=O)NNC(=O)/C=C\C(=O)O,–,"inconclusive: 4.47 µM [falling, partial curve]"
COc1ccccc1NC(=O)CSc1nnc(-c2ccccn2)o1,–,"inconclusive: 3.55 µM [falling, partial curve]"
COc1ccc2occ(C(=O)c3coc4ccc(O)c(CN(C)C)c34)c2c1,inconclusive: -11.9%,–
COc1cc(-c2nc(-c3ccccn3)no2)cc(OC)c1OC,–,"inconclusive: 20 µM [falling, partial curve]"
C[C@]12c3[nH]c4ccc(Cl)cc4c3CCN1C(=O)[C@@H](CC(=O)NCc1cccc(C(F)(F)F)c1)C[C@@H]2C(=O)N1CCCCC1,inactive,–
CCC(=O)c1ccc(OCc2ccc(C(=O)c3ccccc3)cc2)cc1,inactive,–
Cc1ccc(NC(=O)NC(=O)N(C(C)C)S(=O)(=O)c2ccc(C)cc2)cc1,inconclusive: 8%,–
CC1=C(C(=O)OCC(Cl)(Cl)Cl)N2C(=O)C(NC(=O)Cc3ccccc3)C2SC1 (stereo unspecified),inconclusive: -6.69%,–
Cc1ccc(NC(=O)CN(C)C(=O)COC(=O)[C@@H](NC(=O)c2ccccc2F)C(C)C)cc1,inconclusive: 0.505%,–
COc1cc(OC)c2c(-c3cccc(-c4sccc4C(C)=O)c3)cc(=O)oc2c1,–,"inconclusive: 8.2 µM [falling, partial curve]"
O=C1NCCc2c1[nH]c1c(Cl)ccc(Cl)c21,inconclusive: -19.9%,–
COc1ccc(C(=O)O)cc1S(=O)(=O)Nc1cccc(C)c1,inconclusive: 8.22%,–
COc1ccc(CO/N=C/c2c(C)[nH]c(=O)[nH]c2=O)cc1,inactive,–

SMILES,"activity change, negative = inhibition",Potency
Cc1ccc(-c2cn(-c3ccccc3)c(SCC(=O)NC3CCS(=O)(=O)C3)n2)cc1C (stereo unspecified),inconclusive: 0.845%,–
OCC1(CCc2ccccc2)CCCN(CCCc2ccccc2)C1 (stereo unspecified),inactive,–
COc1cccc(-c2noc(-c3cccs3)n2)c1,inconclusive: -11%,–
Nc1ccc(C(=O)OCCCc2nc3ccccc3[nH]2)cc1,inactive,–
CC(=O)Nc1cccc2c1C(=O)N(c1ccc(OC(C)=O)cc1)C2=O,inactive,–
CCCCC(NC(=O)CCc1c(C)c2cc3c4c(oc3c(C)c2oc1=O)CCCC4)C(=O)O (stereo unspecified),inconclusive: -15%,–
O=C(O)CC/C(=C\c1ccc2c(c1)OCO2)c1nc2ccccc2s1,–,"inconclusive: 22.4 µM [falling, single point]"
O=C(C(Cc1ccccc1)n1cccc1)N1CCc2ccccc21 (stereo unspecified),inconclusive: 7.45%,–
C=C1CCC[C@]2(C)C[C@H]3OC(=O)C(CN4CCOCC4)[C@H]3C[C@@H]12 (stereo partly specified),inconclusive: 2.24%,–
C/C=C/c1ccc(OCC(O)CNCCc2ccc(OC)cc2)c(OC)c1 (stereo unspecified),inactive,–
Cc1ccc(CNc2ccc(N3CCOCC3)cc2)s1,inconclusive: -0.219%,–
CCOC(=O)C1(Cc2cccc(Cl)c2)CCCN(C(=O)C2CC2)C1 (stereo unspecified),inactive,–
CSc1nncn1/N=C/c1cc(Cl)ccc1F,inconclusive: 142%,–
COc1ccccc1Nc1nc(-c2sc(N)nc2C)cs1,inconclusive: -24.3%,–
CCOc1nc(NCCN2CCOCC2)nc(Nc2ccc(C)cc2)n1,inconclusive: 7.16%,–
C[C@H](CO)N1C[C@H](C)[C@@H](CN(C)Cc2ccc(C(=O)O)cc2)Oc2ccc(NC(=O)Cn3cnnn3)cc2C1=O,inconclusive: 1.41%,–
COc1ccc(S(=O)(=O)N2CCN(C(=O)Nc3ccccc3OC)CC2)cc1,inactive,–
COc1ccccc1Nc1nnc(Cc2ccccc2)c(=O)[nH]1,–,"inconclusive: 11.2 µM [falling, partial curve]"
O=C(CN1CCN(Cc2ccc(Cl)cc2)CC1)N/N=C/c1cccc(F)c1,inactive,–
COc1ccc(Oc2c(Cl)cnn(-c3ccc(F)cc3)c2=O)cc1,inactive,–
CCc1nc(Nc2ccc(NC(C)=O)cc2)c2oc3ccccc3c2n1,inconclusive: 0.465%,–
CCN1CCN(c2nc3ccccc3nc2C(C#N)C(=O)OC2CCCCC2)CC1 (stereo unspecified),inactive,–
CC(=O)Nc1cccc(C(=O)NC(C)c2ccc(S(N)(=O)=O)cc2)c1 (stereo unspecified),inconclusive: 1.34%,–
O=C(Nc1ccc2nccnc2c1)c1cnccn1,–,"inconclusive: 9.2 µM [rising, partial curve, poor fit]"
Cc1cccc(CCNC(=O)c2ccc(CSCc3cccc(Cl)c3)o2)c1,inactive,–

# Looked up by compound from the list above (4):
SMILES,"activity change, negative = inhibition",Potency
O=C(O)CC/C(=C\c1ccc2c(c1)OCO2)c1nc2ccccc2s1,–,"inconclusive: 22.4 µM [falling, single point]"
C[C@H](CO)N1C[C@H](C)[C@@H](CN(C)Cc2ccc(C(=O)O)cc2)Oc2ccc(NC(=O)Cn3cnnn3)cc2C1=O,inconclusive: 1.41%,–
CCCCC(NC(=O)CCc1c(C)c2cc3c4c(oc3c(C)c2oc1=O)CCCC4)C(=O)O (stereo unspecified),inconclusive: -15%,–
CCOC(=O)C1(Cc2cccc(Cl)c2)CCCN(C(=O)C2CC2)C1 (stereo unspecified),inactive,–
